# Source: US11066650B2, “Methods for the in vitro manufacture of gastric fundus tissue and compositions related to same” (Children's Hospital Medical Center, priority 2016, dated 2021)
# At least one structure is not confirmed: it was looked up by name or label, or the drawing left a doubt.
# Tested on: hFGOs
# Assay: Acid secretion assay, luminal pH by SNARF-5F in fundic hGOs
# Type: cell-based, human
# Method: Acid secretion assays were performed as previously described (Schumacher et al., 2015). hGOs were grown in the chambered coverglass (Thermo Scientific) and the chamber was placed on an inverted confocal microscope (Zeiss LSM 710), and experiments were performed under 5% CO2 and 37° C. conditions (incubation chamber, PeCon, Erbach, Germany).
# Freshly isolated mouse gastric fundic glands or cultured hGO were incubated with acridine orange (10 μM), then acridine orange fluorescence was excited at 458 nm or 488 nm and images were collected at 600-650 nm (Red) or 500-550 nm (Green), respectively. On the other hand, to monitor hGOs luminal pH, the ratiometric pH sensitive dye, 5-(and-6)-carboxy SNARF-5F (5 mM stock: EX 560 nm, EM 565-605 (Green) and 620-680 (Red) nm: Invitrogen) was microinjected (46-92 nl) into the lumen and monitored. Fluorescent dye also added into medium. Histamine (100 μM; Sigma) was added to media, while famotidine (100 μM; Sigma) or omeprazole (100 μM; Sigma) were pre-incubated at least 30 min before histamine. Images were analyzed using MetaMorph software (Molecular Devices, Downingtown, Pa.). Background corrected 620-680/565-605 nm ratio values were converted to pH using a standard curve.
smiles,measurement,setting,value
COc1ccc2[nH]c([S+]([O-])Cc3ncc(C)c(OC)c3C)nc2c1 (centres unmarked) [omeprazole],histamine-induced decrease in luminal pH (acidification),"100 μM, pre-incubated at least 30 min before histamine 100 μM",blocked
same,luminal pH prior to histamine exposure,"omeprazole pre-treatment, before histamine",sufficient to raise the pH
